The whole screen tested about 340,000 compounds, of which about 170 (0.05%) were called active. Inconclusive means that the source gave no clear call. Such entries were picked first, then a sample of the others. The call rests on the fitted dose curve; in most records, active means well fitted inhibition curve with a large enough effect in the signal ratio, with a control signal flat (not every such curve was filed as active); inconclusive means small, poorly fitted or top-dose-only effect, or effect the other way, or a change in a side signal; inactive means flat fitted curve, though single readings scatter; the % refers to the signal ratio. Where the call is inconclusive, the potency comes from a doubtful curve fit.
Assay: qHTS Assay to Find Inhibitors of Chronic Active B-Cell Receptor Signaling;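 on activity change, negative = inhibition: plate controls were basal doxycycline-induced cells for no effect and cells given 10 µM MG132 for full effect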
Details: ABC-DLBCL IkBa-CBG/CBR reporter, luminescence ratio (green luciferase fused to IkBa over red control in TMD8 lymphoma cells), 4 h; activity change, negative = inhibition: at 46.1 µM (top of the series)
In short: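 Doxycycline induced both beetle luciferases in TMD8 lymphoma cells; IKK-driven degradation limits the IkappaBalpha-fused green signal, while red luminescence normalises for cell number and nonspecific effects. Compounds tested up to 46 uM, 4 hrs.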
Potency means the concentration at half of the fitted maximal effect.

Row | Structure (SMILES) | activity change, negative = inhibition | Potency
1 | Cc1noc(C)c1COC(=O)c1cc(S(=O)(=O)N2CCOCC2)ccc1F | inconclusive: 7.14% | –
2 | Cc1nc(-c2ccccc2)sc1C(=O)CSc1ccccc1 | – | inconclusive: 1.3 µM [rising, full curve]
3 | COc1ccc(C2C(O)C(c3c[nH]c4ccccc34)=NN2C(=O)CCl)cc1 (centres undefined) | – | inconclusive: 3.98 µM [falling, single point]
4 | CNC(=S)N/N=C/c1ccccc1Cl | inconclusive: -12.4% | –
5 | O=C(Nc1ncc2c(n1)-c1ccccc1CC2)C1CC1 | inconclusive: 23.8% | –
6 | COc1cc([N+](=O)[O-])c2nccnc2c1 | inconclusive: 8.26% | –
7 | Cc1ccc(-n2cccc2/C=C2\C(=N)N3N=C(C(C)C)SC3=NC2=O)cc1 | inconclusive: 15.5% | –
8 | COc1cccc(C(=O)NC(=S)Nc2ccc(N3CCCC3)cc2)c1 | inconclusive: 295% | –
9 | Cc1cc(=O)n2c(n1)NC(Nc1cccc(C)c1C)=NC2c1ccc(F)cc1 (centres undefined) | inconclusive: 11.1% | –
10 | CCOc1ccc(NC(=O)c2cccnc2SC)cc1 | – | inconclusive: 22.4 µM [falling, single point]
11 | O=C(Cn1cnc2c(NC(=O)OCc3ccccc3)ncnc21)NCc1ccccn1 | inactive: 5.74% | –
12 | Cc1cccc(NC(=S)NNC(=O)CCn2cc(C)cn2)c1 | – | inconclusive: 7.08 µM [falling, partial curve]
13 | O=C(c1ccccc1)n1ccc2ccccc21 | inconclusive: 2.88% | –
14 | COc1cc(SC)ccc1C(=O)NCCOc1ccccc1Cl | inconclusive: 3.51% | –
15 | CC(=O)N1CCN(C(=O)c2cc(=O)c3ccccc3o2)CC1 | – | inconclusive: 35.5 µM [falling, partial curve, poor fit]
16 | CCOc1ccccc1NC(=O)COn1nnc2ccccc21 | – | inconclusive: 11.6 µM [falling, partial curve, poor fit]
17 | COc1ccc(OC)c(/C=N/N(C)c2ccccc2)c1 | inconclusive: -17.8% | –
18 | Cc1nc(C)c(-c2csc(Nc3cccc(O)c3)n2)s1 | inconclusive: -16.6% | –
19 | COc1ccc(CNC(=O)Cc2ccc(NC(=O)C3=C(C)OCCS3)cc2)cc1 | – | active: 20 µM
20 | CC(=O)Nc1cc(NC(C)=O)ncn1 | inactive: -3.72% | –
21 | O=C(CNc1ccccc1)c1ccc([N+](=O)[O-])cc1 | – | inconclusive: 29.1 µM [falling, single point]
22 | CCOc1ccc(NS(=O)(=O)c2cc3c(cc2C)N(C)CCO3)cc1 | inactive: 6.82% | –
23 | Fc1ccc(-n2nnc(-c3nccs3)n2)cc1 | – | inconclusive: 35.5 µM [falling, single point]
24 | COCCn1ccc2c(OCC(=O)Nc3cccc(OC)c3)cccc2c1=O | inconclusive: 442% | –
25 | Cc1ccc(Cl)cc1N1CCN(C(=O)COc2ccc(S(=O)(=O)NC(C)C)cc2)CC1 | inconclusive: -22.8% | –
26 | O=C(Nc1ccc(Cl)cc1)N1CCN(c2ncccn2)CC1 | inconclusive: -12.8% | –
27 | Cc1nc2ccccc2n1CC(=O)NN | inconclusive: 6.84% | –

Row | Structure (SMILES) | activity change, negative = inhibition | Potency
28 | O=C1CCc2cc(S(=O)(=O)NC(Cc3ccccc3)C(=O)NC3CCCCC3)ccc2N1 (centres undefined) | inconclusive: -4.21% | –
29 | Cc1c(O)ccc2c3c(c(=O)oc12)CCC(C)C3 (centres undefined) | inconclusive: 0.622% | –
30 | CC(C)CN(CC(C)C)C(=O)CN1C(=O)NC2(CCCc3ccccc32)C1=O (centres undefined) | inactive: 7.71% | –
31 | CC(=O)c1ccc(S(=O)(=O)Nc2cccc(-c3ccc4nncn4n3)c2)cc1 | inconclusive: 1.58% | –
32 | COc1ccc(NC(=O)C2Cc3cccc(OC)c3O/C2=N\O)cc1 (centres undefined) | – | inconclusive: 11.2 µM [falling, partial curve, poor fit]
33 | N/C(=N\OC(=O)c1cccc(Br)c1)c1ccncc1 | inconclusive: -16.1% | –
34 | C/C(CC(=O)Nc1ccc2c(c1)OCCO2)=N\NC(=O)c1ccccc1Cl | – | inconclusive: 25.1 µM [falling, partial curve]
35 | COc1ccc(-c2cc(C(=O)Nc3cccnc3)c3ccccc3n2)cc1OC | inconclusive: 0.181% | –
36 | CCN1CCN(CC(=O)N2N=C(c3cccs3)CC2c2ccc(F)cc2)C(=O)C1=O (centres undefined) | inconclusive: 0.492% | –
37 | CCCNc1nc(C)nc2c1cnn2CCc1ccccc1 | – | inconclusive: 0.326 µM [rising, partial curve, poor fit]
38 | O=C(CC1SC(=O)NC1=O)Oc1ccc(/C=N/NC(=O)c2ccccc2O)cc1 (centres undefined) | inconclusive: 241% | –
39 | CC(=O)c1sc(-c2ccccc2)cc1NS(=O)(=O)c1ccccc1 | inconclusive: 9.93% | –
40 | CCOc1cc(/C=C/c2cc(C(=O)O)c3ccccc3n2)ccc1OC | inactive: -2.36% | –
41 | O=C(COC(=O)Cc1cccc2ccccc12)Nc1ccccc1-c1ccccc1 | inconclusive: -18.9% | –
42 | Cc1cc(C)nc(-n2nc(C)cc2NC(=O)C(C)C)n1 | inactive: 6.99% | –
43 | CCOc1cccc2cc(-c3nc4ccc(C(=O)O)cc4[nH]3)c(=O)oc12 | inconclusive: 468% | –
44 | COc1ccc([N+](=O)[O-])cc1NS(=O)(=O)c1cc(C(=O)O)ccc1OC | – | inconclusive: 22.4 µM [falling, single point]
45 | Cc1cc(C(=O)N/N=C/c2ccco2)c2ccccc2n1 | inactive: -0.418% | –
46 | CCc1ccc(NS(=O)(=O)c2ccc3[nH]cc(C(=O)NCC4CCCO4)c(=O)c3c2)cc1 (centres undefined) | inconclusive: 2.21% | –
47 | Clc1ccc(-c2cc(C3CCNCC3)[nH]n2)c(Cl)c1 | inconclusive: -0.864% | –
48 | O=[N+]([O-])c1ccc(O)c(C(C#Cc2ccccc2)N2CCOCC2)c1 (centres undefined) | – | inconclusive: 35.5 µM [falling, single point]
49 | CCNC(=O)C(=O)c1c(-c2ccccc2)[nH]c2ccccc12 | inactive: 0.129% | –
50 | Cc1ccc(SCc2nc(-c3ccccc3)no2)cc1 | inconclusive: 2.78% | –
51 | Cc1cc(S(=O)(=O)Nc2ccc3cn[nH]c3c2)c(C)cc1Cl | inconclusive: 4.71% | –
52 | NS(=O)(=O)c1ccc(NNC(=O)c2ccc(F)cc2F)cc1 | inconclusive: -1.76% | –
53 | O=C(NC(=S)NNC(=O)c1cccs1)c1ccc(Br)o1 | – | inconclusive: 29.1 µM [rising, single point]
54 | O=C(Nc1ccc(Cn2nnc3ccccc32)cc1)c1ccco1 | inconclusive: -3.32% | –

Full records as entered above. Order of values: activity change, negative = inhibition	Potency
NS(=O)(=O)c1ccc(NNC(=O)c2ccc(F)cc2F)cc1 is listed as inconclusive: -1.76%	–
Cc1cc(C(=O)N/N=C/c2ccco2)c2ccccc2n1 is listed as inactive: -0.418%	–

— PubChem BioAssay AID493014 (National Center for Advancing Translational Sciences (NCATS), 2011)
